Laboratory results reported in article PMC10117899.
No constants are given. Whether binding was seen depends on the method and setting. Binding seen in cells or lysates may run through a third protein. Some results given as binding are weak or reduced against the parent protein; the word gives no strength.

The chains behind the UniProt entries cited, without tags or fusion partners.
UniProt Q4JK59: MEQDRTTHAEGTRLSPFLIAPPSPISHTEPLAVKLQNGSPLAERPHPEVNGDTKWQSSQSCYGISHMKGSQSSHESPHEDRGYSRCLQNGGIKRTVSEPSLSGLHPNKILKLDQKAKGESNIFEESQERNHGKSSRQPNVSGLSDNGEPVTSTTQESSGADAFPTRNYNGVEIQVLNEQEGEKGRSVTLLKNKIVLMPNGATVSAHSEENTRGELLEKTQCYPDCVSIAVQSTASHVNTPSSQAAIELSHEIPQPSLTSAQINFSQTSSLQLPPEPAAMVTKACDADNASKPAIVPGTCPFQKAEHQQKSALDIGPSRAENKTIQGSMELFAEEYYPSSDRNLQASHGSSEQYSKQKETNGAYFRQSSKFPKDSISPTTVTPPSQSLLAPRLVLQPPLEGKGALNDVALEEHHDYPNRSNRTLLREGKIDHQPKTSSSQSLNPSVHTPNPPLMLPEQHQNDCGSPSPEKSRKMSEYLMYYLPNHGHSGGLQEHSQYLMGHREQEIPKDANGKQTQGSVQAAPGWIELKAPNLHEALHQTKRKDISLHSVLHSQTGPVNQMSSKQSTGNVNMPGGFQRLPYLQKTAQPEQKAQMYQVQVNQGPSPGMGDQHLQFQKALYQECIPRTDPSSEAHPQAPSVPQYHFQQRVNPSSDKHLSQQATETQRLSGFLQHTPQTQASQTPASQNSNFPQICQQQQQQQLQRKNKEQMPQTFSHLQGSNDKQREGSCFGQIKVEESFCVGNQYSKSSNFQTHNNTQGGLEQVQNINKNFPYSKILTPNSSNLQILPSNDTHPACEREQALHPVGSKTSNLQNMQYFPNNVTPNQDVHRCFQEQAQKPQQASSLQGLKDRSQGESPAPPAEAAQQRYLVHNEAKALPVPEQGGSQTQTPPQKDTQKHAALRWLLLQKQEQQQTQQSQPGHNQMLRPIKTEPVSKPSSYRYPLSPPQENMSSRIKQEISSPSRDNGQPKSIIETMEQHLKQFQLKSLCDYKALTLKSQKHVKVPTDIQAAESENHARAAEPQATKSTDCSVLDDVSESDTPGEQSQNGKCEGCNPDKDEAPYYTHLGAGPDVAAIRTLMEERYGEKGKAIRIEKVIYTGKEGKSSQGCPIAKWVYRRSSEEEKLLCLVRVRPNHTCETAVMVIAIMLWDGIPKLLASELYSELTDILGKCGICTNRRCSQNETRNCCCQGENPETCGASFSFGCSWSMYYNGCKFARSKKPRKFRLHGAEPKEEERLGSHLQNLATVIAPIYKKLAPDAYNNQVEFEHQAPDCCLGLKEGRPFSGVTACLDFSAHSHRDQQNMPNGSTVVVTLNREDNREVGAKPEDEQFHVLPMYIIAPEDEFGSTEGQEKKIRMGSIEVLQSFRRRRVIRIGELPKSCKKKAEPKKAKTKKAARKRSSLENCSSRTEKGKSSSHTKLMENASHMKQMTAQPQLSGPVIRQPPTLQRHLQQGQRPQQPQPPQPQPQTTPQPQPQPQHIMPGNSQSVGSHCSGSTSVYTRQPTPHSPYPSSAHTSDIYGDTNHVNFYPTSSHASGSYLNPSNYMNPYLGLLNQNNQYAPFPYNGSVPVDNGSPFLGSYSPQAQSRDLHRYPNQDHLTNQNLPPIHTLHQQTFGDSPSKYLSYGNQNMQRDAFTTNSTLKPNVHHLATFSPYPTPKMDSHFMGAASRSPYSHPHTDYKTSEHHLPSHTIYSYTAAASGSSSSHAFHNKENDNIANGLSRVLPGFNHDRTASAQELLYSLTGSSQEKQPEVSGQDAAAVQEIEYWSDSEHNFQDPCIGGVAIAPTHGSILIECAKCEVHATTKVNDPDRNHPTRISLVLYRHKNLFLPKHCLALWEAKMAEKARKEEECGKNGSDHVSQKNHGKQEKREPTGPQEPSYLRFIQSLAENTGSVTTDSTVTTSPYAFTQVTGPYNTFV
UniProt Q9EPU0: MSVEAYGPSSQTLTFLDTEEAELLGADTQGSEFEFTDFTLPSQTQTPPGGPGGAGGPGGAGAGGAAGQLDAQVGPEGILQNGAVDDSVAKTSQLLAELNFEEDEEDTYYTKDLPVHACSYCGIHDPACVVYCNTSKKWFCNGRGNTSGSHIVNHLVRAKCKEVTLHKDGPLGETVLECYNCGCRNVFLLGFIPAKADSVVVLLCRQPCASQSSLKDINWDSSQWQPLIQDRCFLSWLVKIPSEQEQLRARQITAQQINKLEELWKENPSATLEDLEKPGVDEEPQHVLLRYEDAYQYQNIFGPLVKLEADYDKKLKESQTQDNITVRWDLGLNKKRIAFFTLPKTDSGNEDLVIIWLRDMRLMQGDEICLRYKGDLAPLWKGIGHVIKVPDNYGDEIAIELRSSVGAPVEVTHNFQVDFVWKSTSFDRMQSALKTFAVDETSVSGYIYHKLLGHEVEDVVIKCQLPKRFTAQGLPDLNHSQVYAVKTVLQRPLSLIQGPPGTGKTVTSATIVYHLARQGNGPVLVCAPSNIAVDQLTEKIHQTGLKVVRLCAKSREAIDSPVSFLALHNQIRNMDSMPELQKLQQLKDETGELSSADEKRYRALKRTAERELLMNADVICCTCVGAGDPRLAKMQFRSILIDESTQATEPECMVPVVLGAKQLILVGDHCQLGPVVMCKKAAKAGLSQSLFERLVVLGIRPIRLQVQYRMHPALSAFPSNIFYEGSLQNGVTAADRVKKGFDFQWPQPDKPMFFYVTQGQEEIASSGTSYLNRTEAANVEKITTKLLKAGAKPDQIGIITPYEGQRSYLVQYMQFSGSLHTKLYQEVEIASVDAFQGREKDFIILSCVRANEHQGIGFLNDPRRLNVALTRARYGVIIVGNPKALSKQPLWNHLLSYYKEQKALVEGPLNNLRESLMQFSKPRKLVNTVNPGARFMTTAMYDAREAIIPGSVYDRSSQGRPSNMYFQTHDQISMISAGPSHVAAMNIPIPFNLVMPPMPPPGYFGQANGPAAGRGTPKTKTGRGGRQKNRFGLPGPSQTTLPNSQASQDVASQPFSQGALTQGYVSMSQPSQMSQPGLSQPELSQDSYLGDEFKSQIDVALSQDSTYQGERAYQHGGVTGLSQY

Key:
[1] = target: Flag-Tet2 (mouse) (UniProt Q4JK59); assay: co-IP; exogenous IP: HEK293T co-transfected with HA-Upf1 and Flag-Tet2 (or vector) for 48 h; lysis buffer 150 mM NaCl, 25 mM tris-HCl pH 7.4, 10% glycerol, 0.5% Triton X-100, 2 mM MgCl2; Flag beads, 4°C overnight; blot with anti-HA
[2] = target: endogenous Tet2 (mouse (endogenous in N2a)) (UniProt Q4JK59); assay: co-IP; endogenous IP: N2a cells lysed in RIPA buffer (50 mM Tris pH 8.0, 0.1% SDS, 150 mM NaCl, 1 mM EDTA, 1 mM EGTA, 0.5% deoxycholate, 1% Triton X-100); anti-Tet2 or IgG antibody, agarose beads, 4°C overnight; blot with anti-Upf1

Substance | binding [1] | binding [2]
HA-Upf1 (from UniProt Q9EPU0 1-1124) (enzyme) | binds | 
endogenous Upf1 (from UniProt Q9EPU0 1-1124) (enzyme) |  | binds
